Reference: the supplement of paper PMC10849652
The other results are listed elsewhere or left out.

Chains of the proteins cited; added tags and fusions are not shown. Lines headed by an entry give the natural chain unless they say otherwise; changes in a name come on top.
UniProt Q96BH1: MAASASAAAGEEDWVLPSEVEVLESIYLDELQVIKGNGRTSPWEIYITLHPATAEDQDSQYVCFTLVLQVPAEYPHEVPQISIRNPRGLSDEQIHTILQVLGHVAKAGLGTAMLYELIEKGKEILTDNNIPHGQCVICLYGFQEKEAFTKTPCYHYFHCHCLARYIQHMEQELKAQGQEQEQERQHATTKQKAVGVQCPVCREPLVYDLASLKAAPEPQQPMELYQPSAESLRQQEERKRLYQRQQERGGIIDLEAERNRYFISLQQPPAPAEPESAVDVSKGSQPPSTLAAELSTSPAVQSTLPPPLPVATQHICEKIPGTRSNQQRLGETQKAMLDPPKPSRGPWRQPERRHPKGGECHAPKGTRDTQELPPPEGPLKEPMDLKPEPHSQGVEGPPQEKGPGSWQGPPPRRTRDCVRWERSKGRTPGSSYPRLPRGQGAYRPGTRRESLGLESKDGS
UniProt P13489: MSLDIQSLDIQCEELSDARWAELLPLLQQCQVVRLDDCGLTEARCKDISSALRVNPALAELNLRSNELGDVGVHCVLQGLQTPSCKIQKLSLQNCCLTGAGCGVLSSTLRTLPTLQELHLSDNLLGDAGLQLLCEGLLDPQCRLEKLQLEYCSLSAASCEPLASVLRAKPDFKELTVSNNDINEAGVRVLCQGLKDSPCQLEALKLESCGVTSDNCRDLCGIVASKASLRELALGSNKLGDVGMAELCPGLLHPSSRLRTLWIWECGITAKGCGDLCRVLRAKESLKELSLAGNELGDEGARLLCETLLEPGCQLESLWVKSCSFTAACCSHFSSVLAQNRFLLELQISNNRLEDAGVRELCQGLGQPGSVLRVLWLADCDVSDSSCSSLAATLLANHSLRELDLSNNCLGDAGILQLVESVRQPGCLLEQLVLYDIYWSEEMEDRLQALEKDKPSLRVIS
UniProt O00584, whole entry, looked up: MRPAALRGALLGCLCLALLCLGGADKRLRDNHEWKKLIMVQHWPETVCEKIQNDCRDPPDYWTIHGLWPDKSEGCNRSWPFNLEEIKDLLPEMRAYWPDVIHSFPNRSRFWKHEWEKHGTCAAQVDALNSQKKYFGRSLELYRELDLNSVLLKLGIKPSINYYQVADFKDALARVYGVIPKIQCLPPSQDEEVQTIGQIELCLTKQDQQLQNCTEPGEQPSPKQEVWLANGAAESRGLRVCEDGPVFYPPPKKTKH
UniProt O15541: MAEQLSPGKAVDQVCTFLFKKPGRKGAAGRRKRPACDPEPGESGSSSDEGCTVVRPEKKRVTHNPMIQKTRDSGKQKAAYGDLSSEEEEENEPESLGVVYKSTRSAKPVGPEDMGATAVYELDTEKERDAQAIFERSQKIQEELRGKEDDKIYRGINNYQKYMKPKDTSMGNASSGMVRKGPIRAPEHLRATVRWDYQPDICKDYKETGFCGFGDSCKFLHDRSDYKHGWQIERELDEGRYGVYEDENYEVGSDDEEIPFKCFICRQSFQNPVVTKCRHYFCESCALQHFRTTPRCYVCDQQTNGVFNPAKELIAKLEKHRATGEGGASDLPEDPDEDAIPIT
UniProt Q5EBL4: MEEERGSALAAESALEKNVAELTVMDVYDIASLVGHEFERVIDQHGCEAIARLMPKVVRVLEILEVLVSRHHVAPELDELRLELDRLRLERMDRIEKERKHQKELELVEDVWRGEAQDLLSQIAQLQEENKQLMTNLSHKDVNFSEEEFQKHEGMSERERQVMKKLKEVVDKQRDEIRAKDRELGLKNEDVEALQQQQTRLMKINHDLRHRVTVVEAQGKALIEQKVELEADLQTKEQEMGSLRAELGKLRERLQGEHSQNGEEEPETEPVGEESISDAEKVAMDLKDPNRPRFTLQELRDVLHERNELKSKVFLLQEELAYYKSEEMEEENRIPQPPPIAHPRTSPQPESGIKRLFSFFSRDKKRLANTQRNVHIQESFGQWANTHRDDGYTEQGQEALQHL
UniProt O75792: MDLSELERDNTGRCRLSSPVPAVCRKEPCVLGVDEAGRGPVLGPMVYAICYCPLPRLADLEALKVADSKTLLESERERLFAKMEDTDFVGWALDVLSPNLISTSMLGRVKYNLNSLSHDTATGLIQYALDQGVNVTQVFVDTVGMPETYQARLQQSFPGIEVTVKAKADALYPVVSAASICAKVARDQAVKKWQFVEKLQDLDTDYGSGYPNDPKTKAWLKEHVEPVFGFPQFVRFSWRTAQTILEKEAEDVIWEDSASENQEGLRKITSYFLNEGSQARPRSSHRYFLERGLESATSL
UniProt Q96A37: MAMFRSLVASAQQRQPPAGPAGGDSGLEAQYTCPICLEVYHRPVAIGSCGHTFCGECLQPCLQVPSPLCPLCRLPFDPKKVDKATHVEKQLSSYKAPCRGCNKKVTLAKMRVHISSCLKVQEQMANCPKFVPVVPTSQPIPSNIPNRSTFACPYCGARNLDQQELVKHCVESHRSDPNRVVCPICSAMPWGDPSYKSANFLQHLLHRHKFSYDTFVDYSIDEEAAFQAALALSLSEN
UniProt Q9NTX7: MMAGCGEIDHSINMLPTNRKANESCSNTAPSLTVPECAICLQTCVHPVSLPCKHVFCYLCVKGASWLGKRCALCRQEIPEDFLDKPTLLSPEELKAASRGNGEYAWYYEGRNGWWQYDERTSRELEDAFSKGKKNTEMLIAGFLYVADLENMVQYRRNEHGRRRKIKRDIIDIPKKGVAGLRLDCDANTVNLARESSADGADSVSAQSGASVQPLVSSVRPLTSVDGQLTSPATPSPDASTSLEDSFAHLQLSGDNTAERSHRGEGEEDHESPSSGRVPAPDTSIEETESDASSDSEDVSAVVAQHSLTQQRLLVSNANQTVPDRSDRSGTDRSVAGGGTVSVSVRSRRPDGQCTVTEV
UniProt O75116: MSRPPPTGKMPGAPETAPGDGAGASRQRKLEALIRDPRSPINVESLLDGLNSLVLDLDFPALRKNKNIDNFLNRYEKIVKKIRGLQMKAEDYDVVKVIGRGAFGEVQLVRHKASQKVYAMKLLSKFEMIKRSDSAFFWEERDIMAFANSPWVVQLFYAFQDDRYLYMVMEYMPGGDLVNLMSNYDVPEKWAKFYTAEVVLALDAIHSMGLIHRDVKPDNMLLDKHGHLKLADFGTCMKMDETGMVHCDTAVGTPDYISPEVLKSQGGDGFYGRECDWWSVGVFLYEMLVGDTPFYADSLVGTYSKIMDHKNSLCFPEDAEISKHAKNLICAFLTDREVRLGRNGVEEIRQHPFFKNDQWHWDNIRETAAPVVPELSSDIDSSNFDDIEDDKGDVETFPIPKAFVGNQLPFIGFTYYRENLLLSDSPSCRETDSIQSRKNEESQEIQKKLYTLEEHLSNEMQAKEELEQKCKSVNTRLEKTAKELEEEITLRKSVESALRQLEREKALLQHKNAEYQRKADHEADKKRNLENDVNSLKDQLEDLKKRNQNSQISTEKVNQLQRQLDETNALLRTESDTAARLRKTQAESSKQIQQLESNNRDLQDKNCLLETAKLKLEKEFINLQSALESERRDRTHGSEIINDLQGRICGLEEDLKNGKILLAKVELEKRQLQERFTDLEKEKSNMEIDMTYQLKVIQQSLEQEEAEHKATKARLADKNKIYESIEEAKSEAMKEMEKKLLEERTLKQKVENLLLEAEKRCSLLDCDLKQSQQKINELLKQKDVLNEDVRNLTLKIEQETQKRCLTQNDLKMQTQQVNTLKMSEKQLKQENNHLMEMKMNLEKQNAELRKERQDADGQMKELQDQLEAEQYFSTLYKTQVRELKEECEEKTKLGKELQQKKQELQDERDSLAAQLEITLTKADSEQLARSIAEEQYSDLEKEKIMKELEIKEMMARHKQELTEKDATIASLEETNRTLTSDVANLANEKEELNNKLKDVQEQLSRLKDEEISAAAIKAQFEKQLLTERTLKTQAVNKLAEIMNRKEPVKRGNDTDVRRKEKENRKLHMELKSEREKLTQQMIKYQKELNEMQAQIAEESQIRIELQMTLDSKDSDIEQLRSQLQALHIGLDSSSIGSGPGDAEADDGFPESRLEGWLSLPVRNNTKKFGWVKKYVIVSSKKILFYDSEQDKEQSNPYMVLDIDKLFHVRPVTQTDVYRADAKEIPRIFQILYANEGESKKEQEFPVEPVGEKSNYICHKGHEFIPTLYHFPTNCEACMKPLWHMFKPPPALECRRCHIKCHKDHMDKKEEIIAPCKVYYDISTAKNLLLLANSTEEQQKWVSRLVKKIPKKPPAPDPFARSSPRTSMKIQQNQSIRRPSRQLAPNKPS
UniProt P62745, whole entry, looked up: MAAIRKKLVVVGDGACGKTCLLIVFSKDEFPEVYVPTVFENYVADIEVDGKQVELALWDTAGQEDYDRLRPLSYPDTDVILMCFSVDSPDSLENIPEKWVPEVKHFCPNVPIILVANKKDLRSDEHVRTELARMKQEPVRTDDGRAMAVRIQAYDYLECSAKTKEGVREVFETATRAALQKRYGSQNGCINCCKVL
UniProt Q9H4A4: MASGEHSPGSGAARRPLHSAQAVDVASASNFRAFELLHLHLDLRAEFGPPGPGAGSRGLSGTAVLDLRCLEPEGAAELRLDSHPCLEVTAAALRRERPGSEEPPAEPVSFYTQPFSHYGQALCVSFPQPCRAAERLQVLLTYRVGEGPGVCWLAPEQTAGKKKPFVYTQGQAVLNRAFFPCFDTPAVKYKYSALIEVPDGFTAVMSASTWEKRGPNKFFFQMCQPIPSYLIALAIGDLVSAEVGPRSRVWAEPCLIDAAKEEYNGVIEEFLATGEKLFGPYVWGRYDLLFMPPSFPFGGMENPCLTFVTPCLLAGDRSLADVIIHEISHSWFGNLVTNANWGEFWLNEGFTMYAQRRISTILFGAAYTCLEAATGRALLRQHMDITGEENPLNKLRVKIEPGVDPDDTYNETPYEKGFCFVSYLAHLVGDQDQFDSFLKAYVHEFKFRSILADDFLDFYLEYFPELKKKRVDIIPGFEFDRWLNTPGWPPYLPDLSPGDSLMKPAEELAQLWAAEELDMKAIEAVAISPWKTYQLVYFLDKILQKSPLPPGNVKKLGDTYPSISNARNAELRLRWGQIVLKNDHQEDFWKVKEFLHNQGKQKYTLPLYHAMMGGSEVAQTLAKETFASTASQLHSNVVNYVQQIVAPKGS
UniProt P35244: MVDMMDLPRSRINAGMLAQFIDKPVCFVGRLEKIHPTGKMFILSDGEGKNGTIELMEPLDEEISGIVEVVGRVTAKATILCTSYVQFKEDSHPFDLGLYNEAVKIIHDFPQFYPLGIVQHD
UniProt Q9BWH6: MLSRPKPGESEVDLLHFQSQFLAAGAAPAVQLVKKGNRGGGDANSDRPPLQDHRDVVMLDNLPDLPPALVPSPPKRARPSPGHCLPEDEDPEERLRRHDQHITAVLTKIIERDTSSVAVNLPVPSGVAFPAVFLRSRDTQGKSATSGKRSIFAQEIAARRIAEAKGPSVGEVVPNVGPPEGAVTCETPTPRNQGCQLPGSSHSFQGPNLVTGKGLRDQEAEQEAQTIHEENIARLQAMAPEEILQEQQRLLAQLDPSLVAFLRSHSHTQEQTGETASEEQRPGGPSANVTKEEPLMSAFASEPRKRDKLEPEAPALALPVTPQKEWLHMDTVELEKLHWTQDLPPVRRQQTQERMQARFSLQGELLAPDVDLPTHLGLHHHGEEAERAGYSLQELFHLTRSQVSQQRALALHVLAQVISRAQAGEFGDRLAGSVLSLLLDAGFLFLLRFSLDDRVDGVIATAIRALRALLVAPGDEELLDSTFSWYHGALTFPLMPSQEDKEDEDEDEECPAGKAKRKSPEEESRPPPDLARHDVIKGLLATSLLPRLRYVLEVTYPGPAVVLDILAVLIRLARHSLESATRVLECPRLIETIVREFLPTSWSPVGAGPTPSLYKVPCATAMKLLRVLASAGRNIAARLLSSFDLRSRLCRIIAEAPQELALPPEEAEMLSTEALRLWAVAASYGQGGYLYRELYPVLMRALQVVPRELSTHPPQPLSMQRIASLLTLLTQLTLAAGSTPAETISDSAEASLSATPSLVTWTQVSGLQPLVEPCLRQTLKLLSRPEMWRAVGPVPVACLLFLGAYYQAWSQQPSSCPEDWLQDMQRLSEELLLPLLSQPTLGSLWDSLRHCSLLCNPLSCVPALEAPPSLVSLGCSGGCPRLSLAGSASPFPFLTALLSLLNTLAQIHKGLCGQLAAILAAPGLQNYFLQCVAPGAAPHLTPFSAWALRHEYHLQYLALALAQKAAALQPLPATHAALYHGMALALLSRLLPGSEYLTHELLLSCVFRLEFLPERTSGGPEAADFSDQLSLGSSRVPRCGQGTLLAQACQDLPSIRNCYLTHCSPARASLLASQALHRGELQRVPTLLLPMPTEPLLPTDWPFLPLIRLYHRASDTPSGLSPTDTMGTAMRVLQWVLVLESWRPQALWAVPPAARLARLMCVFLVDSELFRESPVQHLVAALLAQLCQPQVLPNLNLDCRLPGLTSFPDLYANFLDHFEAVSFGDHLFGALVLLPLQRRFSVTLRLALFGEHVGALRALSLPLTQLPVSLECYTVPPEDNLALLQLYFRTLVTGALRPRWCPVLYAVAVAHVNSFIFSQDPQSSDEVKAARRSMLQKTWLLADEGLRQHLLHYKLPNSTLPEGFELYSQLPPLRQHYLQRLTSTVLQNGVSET

Assays:
Assay in all cases: log2 fold change, soluble protein after heating vs DMSO (PISA); higher = thermal stabilisation; K562 lysate, 10 uM; active = over 0.2 and 3.5 SD of the protein, either way, in both replicates (recomputed)
vemurafenib = compound: CCCS(=O)(=O)Nc1ccc(F)c(C(=O)c2c[nH]c3ncc(-c4ccc(Cl)cc4)cc23)c1F [vemurafenib]
Procedure, shortened: (§1)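 Values give the log-two fold change in thermal stability against solvent controls, from duplicates. Crude K562 extract at 1 mg/mL protein, made by dounce homogenisation in PBS pH 7.4 with 1 mM MgCl2, was treated with 10 μM compound for 30 min. After 3 min heating across 48°C-58°C, aliquots were pooled, adjusted to 0.5% NP-40 at 4°C and centrifuged at 21,000xg for 90 min. The supernatant was measured by TMTpro 16plex LC-MS/MS with channel sums equalised.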

[1] = compound: CCCS(=O)(=O)Nc1ccc(F)c(C(=O)c2c[nH]c3ncc(Cl)cc23)c1F
Procedure, shortened: as §1

barasertib = compound: CCN(CCCOc1ccc2c(Nc3cc(CC(=O)Nc4cccc(F)c4)[nH]n3)ncnc2c1)CCOP(=O)(O)O [barasertib]
Procedure, shortened: as §1

[2] = compound: CC[C@@H]1C(=O)N(C)c2cnc(Nc3ccc(C(=O)NC4CCN(C)CC4)cc3OC)nc2N1C1CCCC1
Procedure, shortened: as §1

volasertib = compound: CC[C@@H]1C(=O)N(C)c2cnc(Nc3ccc(C(=O)N[C@H]4CC[C@H](N5CCN(CC6CC6)CC5)CC4)cc3OC)nc2N1C(C)C [volasertib]
Procedure, shortened: as §1

[3] = compound: CCn1c(C(=O)N(C2CC2)C2CC2)cc2c3c(ncn3C)c(Nc3cc(C)n(C)n3)nc21
Procedure, shortened: as §1

[4] = compound: CCn1cc(-c2ccnc3[nH]c(-c4cccc(CN(C)C)c4)cc23)c(-c2ccc(NC(=O)N(C)C)cc2)n1
Procedure, shortened: as §1

[5] = compound: CN1CCC(CNc2ccc3ncc(-c4cccc(OC(F)(F)F)c4)n3n2)CC1
Procedure, shortened: as §1

saracatinib = compound: CN1CCN(CCOc2cc(OC3CCOCC3)c3c(Nc4c(Cl)ccc5c4OCO5)ncnc3c2)CC1 [saracatinib]
Procedure, shortened: as §1

sotrastaurin = compound: CN1CCN(c2nc(C3=C(c4c[nH]c5ccccc45)C(=O)NC3=O)c3ccccc3n2)CC1 [sotrastaurin]
Procedure, shortened: as §1

Measured: log2 fold change

RPL34 (UniProt P49207)
inactive: vemurafenib 0.011 | [1] -0.002 | barasertib -0.043 | [2] -0.046 | volasertib 0.002 | [3] -0.002 | [4] 0.006 | [5] 0.028 | saracatinib -0.008 | sotrastaurin -0.015

RNF25 (UniProt Q96BH1)
inactive: vemurafenib -0.005 | [1] 0.031 | barasertib -0.045 | [2] 0.024 | volasertib 0.015 | [3] -0.024 | [4] -0.011 | [5] 0.027 | saracatinib 0.027 | sotrastaurin -0.014

ROS1 (UniProt P08922)
inactive: vemurafenib 0.027 | [1] -0.04 | barasertib 0.195 | [2] 0.1 | volasertib 0.008 | [3] -0.052 | [4] -0.124 | [5] 0.006 | saracatinib -0.04 | sotrastaurin -0.056

RINT1 (UniProt Q6NUQ1)
inactive: vemurafenib 0.065 | [1] 0.022 | barasertib 0.095 | [2] -0.055 | volasertib -0.113 | [3] 0.088 | [4] -0.048 | [5] -0.044 | saracatinib 0.095 | sotrastaurin 0.058

RNH1 (UniProt P13489)
inactive: vemurafenib 0.012 | [1] -0.012 | barasertib 0 | [2] 0.007 | volasertib -0.017 | [3] -0.026 | [4] 0.043 | [5] 0.083 | saracatinib -0.04 | sotrastaurin -0.079

RPL27 (UniProt P61353)
active: [4] 0.572
inactive: vemurafenib -0.022 | [1] -0.002 | barasertib 0.011 | [2] -0.001 | volasertib -0.008 | [3] -0.001 | [5] -0.079 | saracatinib 0.019 | sotrastaurin -0.015

RPL26L1 (UniProt Q9UNX3)
inactive: vemurafenib -0.018 | [1] -0.006 | barasertib 0.016 | [2] 0.003 | volasertib -0.013 | [3] 0.036 | [4] 0.202 | [5] -0.148 | saracatinib -0.004 | sotrastaurin -0.007

RPL13A (UniProt P40429)
inactive: vemurafenib 0.002 | [1] 0.017 | barasertib -0.023 | [2] -0.051 | volasertib 0 | [3] 0.012 | [4] -0.064 | [5] 0.031 | saracatinib -0.003 | sotrastaurin -0.01

RPE (UniProt Q96AT9)
inactive: vemurafenib 0.022 | [1] 0.02 | barasertib -0.072 | [2] 0.026 | volasertib 0.002 | [3] 0.014 | [4] 0.072 | [5] -0.118 | saracatinib 0.001 | sotrastaurin 0.001

RNASET2 (UniProt O00584)
inactive: vemurafenib 0.014 | [1] -0.021 | barasertib -0.012 | [2] -0.017 | volasertib 0.012 | [3] -0.021 | [4] 0.002 | [5] 0.029 | saracatinib -0.037 | sotrastaurin -0.026

RNF20 (UniProt Q5VTR2)
inactive: vemurafenib -0.014 | [1] 0.019 | barasertib 0.004 | [2] 0.102 | volasertib -0.004 | [3] 0.038 | [4] -0.043 | [5] 0.043 | saracatinib -0.003 | sotrastaurin 0.025

RNF14 (UniProt Q9UBS8)
inactive: vemurafenib -0.006 | [1] 0.001 | barasertib -0.008 | [2] -0.031 | volasertib -0.001 | [3] -0.07 | [4] 0.026 | [5] -0.024 | saracatinib -0.011 | sotrastaurin 0.022

RNF113A (UniProt O15541)
inactive: vemurafenib 0.021 | [1] -0.012 | barasertib -0.042 | [2] 0.04 | volasertib 0.009 | [3] -0.056 | [4] -0.021 | [5] 0.017 | saracatinib 0.031 | sotrastaurin -0.056

RIF1 (UniProt Q5UIP0)
inactive: vemurafenib 0.013 | [1] 0.02 | barasertib 0.026 | [2] -0.027 | volasertib -0.038 | [3] -0.013 | [4] -0.057 | [5] -0.002 | saracatinib 0.018 | sotrastaurin 0.007

RILPL1 (UniProt Q5EBL4)
inactive: vemurafenib 0.001 | [1] 0.024 | barasertib 0.004 | [2] 0.032 | volasertib -0.002 | [3] 0.033 | [4] 0.011 | [5] 0.057 | saracatinib -0.015 | sotrastaurin 0.014

RNASEH2A (UniProt O75792)
inactive: vemurafenib -0.04 | [1] -0.004 | barasertib -0.074 | [2] -0.005 | volasertib -0.013 | [3] 0.009 | [4] -0.007 | [5] 0.04 | saracatinib 0.012 | sotrastaurin 0.007

RNF166 (UniProt Q96A37)
inactive: vemurafenib 0.007 | [1] 0.092 | barasertib 0.013 | [2] -0.024 | volasertib -0.042 | [3] -0.057 | [4] 0.085 | [5] -0.21 | saracatinib -0.152 | sotrastaurin -0.011

RNF146 (UniProt Q9NTX7)
inactive: vemurafenib 0.015 | [1] 0.025 | barasertib -0.001 | [2] 0.1 | volasertib 0.013 | [3] -0.023 | [4] -0.029 | [5] 0.022 | saracatinib -0.02 | sotrastaurin -0.005

RIOK1 (UniProt Q9BRS2)
inactive: vemurafenib 0.021 | [1] 0.023 | barasertib 0.001 | [2] 0.02 | volasertib -0.093 | [3] 0.004 | [4] 0.017 | [5] 0.057 | saracatinib 0.032 | sotrastaurin 0.001

RIOK3 (UniProt O14730)
inactive: vemurafenib 0.021 | [1] -0.004 | barasertib 0.004 | [2] -0.098 | volasertib -0.041 | [3] -0.032 | [4] -0.052 | [5] -0.024 | saracatinib -0.03 | sotrastaurin 0.013

ROCK2 (UniProt O75116)
inactive: vemurafenib -0.027 | [1] -0.015 | barasertib 0.005 | [2] -0.003 | volasertib -0.012 | [3] -0.013 | [4] 0.053 | [5] 0.027 | saracatinib 0 | sotrastaurin 0.012

RPL21 (UniProt P46778)
inactive: vemurafenib 0.019 | [1] 0.024 | barasertib -0.045 | [2] 0.037 | volasertib -0.003 | [3] -0.045 | [4] -0.002 | [5] 0.026 | saracatinib 0.008 | sotrastaurin 0.002

RPL30 (UniProt P62888)
inactive: vemurafenib -0.029 | [1] 0.028 | barasertib -0.029 | [2] -0.023 | volasertib 0 | [3] -0.044 | [4] -0.037 | [5] 0.04 | saracatinib -0.003 | sotrastaurin -0.011

RHOB (UniProt P62745)
inactive: vemurafenib 0.014 | [1] 0.025 | barasertib -0.147 | [2] 0.03 | volasertib -0.009 | [3] 0.033 | [4] 0.117 | [5] 0.039 | saracatinib -0.153 | sotrastaurin -0.099

RNPEP (UniProt Q9H4A4)
inactive: vemurafenib -0.006 | [1] 0.037 | barasertib -0.037 | [2] 0.022 | volasertib -0.012 | [3] 0.006 | [4] -0.034 | [5] 0.046 | saracatinib -0.01 | sotrastaurin 0.006

RPA3 (UniProt P35244)
inactive: vemurafenib 0.018 | [1] 0.057 | barasertib 0.058 | [2] 0.01 | volasertib 0.016 | [3] -0.016 | [4] 0.042 | [5] -0.057 | saracatinib 0.015 | sotrastaurin -0.023

RPL3 (UniProt P39023)
inactive: vemurafenib -0.018 | [1] -0.003 | barasertib -0.019 | [2] -0.036 | volasertib -0.019 | [3] 0.007 | [4] 0.08 | [5] -0.07 | saracatinib 0.025 | sotrastaurin -0.001

RPL10A (UniProt P62906)
inactive: vemurafenib 0.006 | [1] 0.001 | barasertib -0.018 | [2] 0.008 | volasertib 0.006 | [3] -0.024 | [4] 0.102 | [5] 0.021 | saracatinib 0 | sotrastaurin -0.006

RPL36 (UniProt Q9Y3U8)
inactive: vemurafenib 0.018 | [1] 0.011 | barasertib -0.054 | [2] 0.008 | volasertib 0.019 | [3] -0.006 | [4] -0.292 | [5] 0.014 | saracatinib -0.005 | sotrastaurin -0.005

RPAP1 (UniProt Q9BWH6)
inactive: vemurafenib -0.008 | [1] -0.012 | barasertib 0.012 | [2] -0.028 | volasertib -0.053 | [3] 0 | [4] -0.031 | [5] 0.008 | saracatinib 0.02 | sotrastaurin 0.01
